In the supplement of paper PMC12823440, “Inhibitors supercharge kinase turnover through native proteolytic circuits” (Nature, 2025):
Where a name gives a salt, the structure may show the parent alone. This is one part of the list. The calls rarely recur for the same compound in another form.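 Kinases, fused to nanoluciferase, were expressed in K562 cells; luminescence was measured every 4 h from 2 to 18 h as percent of control (DMSO = 100%, positive control = 0%). A time point is decreased if signal falls significantly (2 sigma). Hits were called by the authors by a rule that is not shown; the count of time points alone does not decide it.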

Chains of the proteins cited; added tags and fusions are not shown. Lines headed by an entry give the natural chain unless they say otherwise; changes in a name come on top.
UniProt Q01974, whole entry: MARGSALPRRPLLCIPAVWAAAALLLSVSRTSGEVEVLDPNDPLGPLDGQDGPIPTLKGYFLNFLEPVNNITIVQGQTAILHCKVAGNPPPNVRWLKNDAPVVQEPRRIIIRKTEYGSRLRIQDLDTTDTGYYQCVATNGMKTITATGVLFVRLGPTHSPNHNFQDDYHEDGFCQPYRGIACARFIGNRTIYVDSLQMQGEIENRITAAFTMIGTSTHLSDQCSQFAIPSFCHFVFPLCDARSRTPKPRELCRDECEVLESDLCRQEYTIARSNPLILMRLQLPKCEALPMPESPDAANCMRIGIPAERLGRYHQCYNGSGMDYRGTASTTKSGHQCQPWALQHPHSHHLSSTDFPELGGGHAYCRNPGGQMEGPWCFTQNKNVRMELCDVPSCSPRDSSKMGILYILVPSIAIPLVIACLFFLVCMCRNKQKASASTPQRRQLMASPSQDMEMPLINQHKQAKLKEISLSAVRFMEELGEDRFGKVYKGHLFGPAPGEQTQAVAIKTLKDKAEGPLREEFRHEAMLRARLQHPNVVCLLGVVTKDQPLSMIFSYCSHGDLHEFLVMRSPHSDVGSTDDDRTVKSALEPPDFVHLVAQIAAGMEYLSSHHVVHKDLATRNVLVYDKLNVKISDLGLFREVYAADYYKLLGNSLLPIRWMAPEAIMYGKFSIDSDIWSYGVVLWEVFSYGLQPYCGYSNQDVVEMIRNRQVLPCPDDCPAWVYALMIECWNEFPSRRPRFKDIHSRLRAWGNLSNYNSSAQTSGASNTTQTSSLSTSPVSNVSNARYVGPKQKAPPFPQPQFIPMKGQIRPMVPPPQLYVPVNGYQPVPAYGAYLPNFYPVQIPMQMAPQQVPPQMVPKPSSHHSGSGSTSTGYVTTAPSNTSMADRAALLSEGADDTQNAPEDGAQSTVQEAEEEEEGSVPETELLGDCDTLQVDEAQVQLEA
UniProt Q15418, whole entry: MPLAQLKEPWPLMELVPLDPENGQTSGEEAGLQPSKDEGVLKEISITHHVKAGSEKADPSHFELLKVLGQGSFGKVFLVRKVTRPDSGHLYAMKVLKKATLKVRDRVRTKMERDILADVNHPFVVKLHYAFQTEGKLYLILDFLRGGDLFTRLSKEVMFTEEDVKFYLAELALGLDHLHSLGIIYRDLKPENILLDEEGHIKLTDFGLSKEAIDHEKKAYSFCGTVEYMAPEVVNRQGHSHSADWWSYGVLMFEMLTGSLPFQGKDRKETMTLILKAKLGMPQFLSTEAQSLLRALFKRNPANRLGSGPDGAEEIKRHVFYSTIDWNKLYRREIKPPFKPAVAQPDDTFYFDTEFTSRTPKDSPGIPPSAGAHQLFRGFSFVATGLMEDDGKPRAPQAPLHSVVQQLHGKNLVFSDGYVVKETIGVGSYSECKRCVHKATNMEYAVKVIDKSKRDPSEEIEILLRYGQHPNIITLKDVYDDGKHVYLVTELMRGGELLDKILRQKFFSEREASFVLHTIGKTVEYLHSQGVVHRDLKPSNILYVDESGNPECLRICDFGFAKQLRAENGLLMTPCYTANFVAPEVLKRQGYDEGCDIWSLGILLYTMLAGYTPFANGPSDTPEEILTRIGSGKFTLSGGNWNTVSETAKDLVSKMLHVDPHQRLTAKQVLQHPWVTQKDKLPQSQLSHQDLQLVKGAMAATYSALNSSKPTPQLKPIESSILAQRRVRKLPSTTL
UniProt Q9NYA1, whole entry: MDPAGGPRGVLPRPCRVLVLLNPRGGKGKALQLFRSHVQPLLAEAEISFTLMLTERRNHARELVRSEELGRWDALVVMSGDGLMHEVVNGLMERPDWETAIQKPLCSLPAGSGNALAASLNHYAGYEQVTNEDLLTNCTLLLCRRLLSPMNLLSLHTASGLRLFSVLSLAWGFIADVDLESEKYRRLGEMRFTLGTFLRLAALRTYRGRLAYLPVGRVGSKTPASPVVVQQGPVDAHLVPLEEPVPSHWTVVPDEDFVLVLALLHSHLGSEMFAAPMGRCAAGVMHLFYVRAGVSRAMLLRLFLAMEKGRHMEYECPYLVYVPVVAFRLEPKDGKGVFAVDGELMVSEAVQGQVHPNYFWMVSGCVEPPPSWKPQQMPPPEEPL
UniProt Q9Y6E0: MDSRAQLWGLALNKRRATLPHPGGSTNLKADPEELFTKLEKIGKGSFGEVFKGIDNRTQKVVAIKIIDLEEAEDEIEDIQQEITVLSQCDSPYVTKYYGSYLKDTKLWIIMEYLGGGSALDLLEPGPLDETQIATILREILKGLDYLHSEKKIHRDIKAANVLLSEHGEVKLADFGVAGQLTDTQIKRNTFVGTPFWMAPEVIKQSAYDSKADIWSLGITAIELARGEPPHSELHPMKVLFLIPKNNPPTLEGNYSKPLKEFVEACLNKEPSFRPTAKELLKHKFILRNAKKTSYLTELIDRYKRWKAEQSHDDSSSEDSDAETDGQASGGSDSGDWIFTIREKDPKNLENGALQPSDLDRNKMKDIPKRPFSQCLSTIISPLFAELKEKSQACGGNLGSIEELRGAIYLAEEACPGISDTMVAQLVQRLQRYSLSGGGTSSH
UniProt Q15208: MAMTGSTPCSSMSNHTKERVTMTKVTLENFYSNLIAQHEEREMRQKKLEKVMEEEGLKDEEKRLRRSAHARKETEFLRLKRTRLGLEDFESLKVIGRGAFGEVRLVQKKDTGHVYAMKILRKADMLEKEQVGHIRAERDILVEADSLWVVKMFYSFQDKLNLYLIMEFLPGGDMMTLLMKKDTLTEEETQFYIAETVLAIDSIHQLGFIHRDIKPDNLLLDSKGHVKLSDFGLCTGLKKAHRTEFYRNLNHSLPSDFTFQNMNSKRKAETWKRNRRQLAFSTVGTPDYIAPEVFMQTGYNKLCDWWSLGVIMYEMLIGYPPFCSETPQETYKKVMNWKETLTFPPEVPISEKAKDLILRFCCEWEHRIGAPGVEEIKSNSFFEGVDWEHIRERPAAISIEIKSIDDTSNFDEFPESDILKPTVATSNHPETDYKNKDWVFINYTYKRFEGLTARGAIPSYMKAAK
UniProt P42680: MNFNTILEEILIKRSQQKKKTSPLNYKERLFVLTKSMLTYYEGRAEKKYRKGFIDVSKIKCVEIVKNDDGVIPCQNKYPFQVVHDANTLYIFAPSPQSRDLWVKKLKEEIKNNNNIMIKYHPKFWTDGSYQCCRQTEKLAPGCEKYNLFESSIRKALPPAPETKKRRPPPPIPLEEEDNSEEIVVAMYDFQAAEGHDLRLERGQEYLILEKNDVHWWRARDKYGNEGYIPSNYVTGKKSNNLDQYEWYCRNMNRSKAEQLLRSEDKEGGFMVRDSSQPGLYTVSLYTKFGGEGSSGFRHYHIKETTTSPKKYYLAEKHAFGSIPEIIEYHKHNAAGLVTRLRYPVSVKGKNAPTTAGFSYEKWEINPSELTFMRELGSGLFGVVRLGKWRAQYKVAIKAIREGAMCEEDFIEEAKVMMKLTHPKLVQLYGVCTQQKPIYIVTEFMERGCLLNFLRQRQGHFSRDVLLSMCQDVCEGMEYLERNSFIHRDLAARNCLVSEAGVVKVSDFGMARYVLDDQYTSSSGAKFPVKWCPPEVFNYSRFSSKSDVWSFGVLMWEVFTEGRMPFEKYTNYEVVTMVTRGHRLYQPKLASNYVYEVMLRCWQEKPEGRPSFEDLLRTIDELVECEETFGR
UniProt P29597: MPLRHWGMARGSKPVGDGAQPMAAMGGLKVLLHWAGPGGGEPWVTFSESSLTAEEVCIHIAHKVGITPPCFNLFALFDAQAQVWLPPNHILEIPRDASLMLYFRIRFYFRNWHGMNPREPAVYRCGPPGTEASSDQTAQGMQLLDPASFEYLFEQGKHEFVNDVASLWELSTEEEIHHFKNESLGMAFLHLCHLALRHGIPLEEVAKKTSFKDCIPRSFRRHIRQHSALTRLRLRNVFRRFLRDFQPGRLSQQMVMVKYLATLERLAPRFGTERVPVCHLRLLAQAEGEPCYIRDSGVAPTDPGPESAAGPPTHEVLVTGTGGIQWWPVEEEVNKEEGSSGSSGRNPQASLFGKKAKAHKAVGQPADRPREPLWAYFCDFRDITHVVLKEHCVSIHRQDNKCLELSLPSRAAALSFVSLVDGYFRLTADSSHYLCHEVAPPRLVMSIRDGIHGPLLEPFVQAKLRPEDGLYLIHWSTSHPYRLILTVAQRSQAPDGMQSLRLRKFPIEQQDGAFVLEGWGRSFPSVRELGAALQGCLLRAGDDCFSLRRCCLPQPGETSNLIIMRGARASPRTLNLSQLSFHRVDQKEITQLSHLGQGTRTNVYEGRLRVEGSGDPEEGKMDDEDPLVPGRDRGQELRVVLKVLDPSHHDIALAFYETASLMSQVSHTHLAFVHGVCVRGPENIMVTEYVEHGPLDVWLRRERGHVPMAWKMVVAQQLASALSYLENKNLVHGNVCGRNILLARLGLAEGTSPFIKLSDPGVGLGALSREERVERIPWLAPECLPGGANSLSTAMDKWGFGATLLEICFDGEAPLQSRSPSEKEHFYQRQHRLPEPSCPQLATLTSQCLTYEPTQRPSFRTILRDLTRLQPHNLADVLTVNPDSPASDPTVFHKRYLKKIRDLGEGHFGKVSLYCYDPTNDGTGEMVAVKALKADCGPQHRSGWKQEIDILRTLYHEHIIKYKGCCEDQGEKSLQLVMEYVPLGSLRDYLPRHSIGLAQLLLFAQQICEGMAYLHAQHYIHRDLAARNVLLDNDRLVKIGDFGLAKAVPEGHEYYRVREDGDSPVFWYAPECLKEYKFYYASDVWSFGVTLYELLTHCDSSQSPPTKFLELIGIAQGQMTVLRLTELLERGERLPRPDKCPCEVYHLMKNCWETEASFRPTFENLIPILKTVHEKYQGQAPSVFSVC
UniProt Q6PHR2: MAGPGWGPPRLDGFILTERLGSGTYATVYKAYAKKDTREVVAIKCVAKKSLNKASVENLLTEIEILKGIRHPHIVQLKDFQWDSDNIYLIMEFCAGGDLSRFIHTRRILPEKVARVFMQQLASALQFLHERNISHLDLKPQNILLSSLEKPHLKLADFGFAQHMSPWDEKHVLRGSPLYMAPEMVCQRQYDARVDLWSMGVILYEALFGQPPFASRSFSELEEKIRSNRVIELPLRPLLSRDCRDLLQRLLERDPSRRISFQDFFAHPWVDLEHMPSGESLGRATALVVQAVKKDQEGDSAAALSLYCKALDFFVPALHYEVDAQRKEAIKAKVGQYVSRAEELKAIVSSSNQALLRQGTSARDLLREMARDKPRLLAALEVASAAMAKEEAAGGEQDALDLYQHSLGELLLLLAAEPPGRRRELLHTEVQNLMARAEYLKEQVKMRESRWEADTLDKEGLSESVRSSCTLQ

Key:
Experiment in all cases: number of time points (of 5) at which kinase-Nluc abundance scored as decreased, DMSO-normalised (count); higher = more persistent destabilization
Conditions in all cases: K562; 2-18 h
ROR2 = ROR2 (UniProt Q01974)
RPS6KA1 = RPS6KA1 (UniProt Q15418)
SPHK1 = SPHK1 (UniProt Q9NYA1)
SRC = SRC (UniProt P12931)
STK24 = STK24 (UniProt Q9Y6E0)
STK38 = STK38 (UniProt Q15208)
SYK = SYK (UniProt P43405)
TEC = TEC (UniProt P42680)
TYK2 = TYK2 (UniProt P29597)
ULK3 = ULK3 (UniProt Q6PHR2)

SMILES | number of time points (ROR2) | number of time points (RPS6KA1) | number of time points (SPHK1) | number of time points (SRC) | number of time points (STK24) | number of time points (STK38) | number of time points (SYK) | number of time points (TEC) | number of time points (TYK2) | number of time points (ULK3)
CC(C)NC(=O)N1CC[C@H](NC2=Nc3cc(F)ccc3N(CC(F)F)c3ccc(Cl)cc32)C1 (10 µM) | 0 | 0 | 0 | 0 | 0 | 0 | 0 | 0 | 0 | 0
CC(C)(C)NC(=O)c1cncn1C1CCN(c2ccc(-c3nnc(C(F)(F)F)o3)cn2)CC1 (10 µM) | 0 | 0 | 0 | 0 | 0 | 0 | 0 | 0 | 0 | 0
Nc1ncc(-c2cccc(N3CCNCC3)c2)cc1C(=O)Nc1ccncc1 [PKC-iota inhibitor 1] (10 µM) | 0 | 0 | 0 | 0 | 0 | 0 | 0 | 0 | 0 | 0
NCc1ccc(Nc2ncc(F)c(Nc3ccccc3)n2)cc1 (10 µM) | 0 | 0 | 0 | 0 | 0 | 0 | 0 | 0 | 0 | 0
COCCO[C@@H]1[C@H](O)[C@@H](CO)O[C@H]1n1cnc2c(=O)[nH]c(N)nc21 [2′-O-(2-Methoxyethyl)guanosine] (10 µM) | 0 | 0 | 0 | 0 | 0 | 0 | 0 | 0 | 0 | 0
COc1ncc(-c2nc(N3CCOCC3)nc3c(CN4CCC(C(C)(C)O)CC4)cc(F)cc23)cc1NS(C)(=O)=O [Linperlisib] (10 µM) | 0 | 0 | 0 | 0 | 0 | 0 | 0 | 0 | 0 | 0
COCCOc1cnc(Sc2cc(C)c(-c3csc(NC(=O)c4ccncc4)n3)c(C)c2)cn1 [T-1101 (tosylate)] (2.5 µM) | 0 | 0 | 0 | 0 | 0 | 0 | 0 | 0 | 0 | 0
CCOc1ccc(C(=O)Nc2ncc([N+](=O)[O-])s2)cc1 (10 µM) | 0 | 0 | 0 | 0 | 0 | 0 | 0 | 0 | 2 | 0
Cc1c(NC(=O)OC[C@@H]2COCCN2)cn2ncnc(Nc3ccc4c(cnn4Cc4cccc(F)c4)c3)c12 (10 µM) | 0 | 0 | 0 | 0 | 0 | 0 | 0 | 0 | 0 | 0
C[C@@]1(O)CCC[C@H]1n1c(=O)c(C(F)F)cc2cnc(NC3CCN(S(C)(=O)=O)CC3)nc21 (2.5 µM) | 0 | 0 | 0 | 0 | 0 | 0 | 0 | 0 | 0 | 0
CN(C)CCN(Cc1ccc(Cl)cc1)c1ccccn1 [Chloropyramine hydrochloride] (10 µM) | 0 | 0 | 0 | 0 | 0 | 4 | 0 | 0 | 0 | 0
CC(C)=CCC[C@](C)(O[C@@H]1O[C@H](CO)[C@@H](O)[C@H](O)[C@H]1O)[C@H]1CC[C@]2(C)[C@@H]1[C@H](O)C[C@@H]1[C@@]3(C)CC[C@H](O)C(C)(C)[C@@H]3[C@@H](O[C@@H]3O[C@H](CO)[C@@H](O)[C@H](O)[C@H]3O[C@@H]3O[C@@H](C)[C@H](O)[C@@H](O)[C@H]3O)C[C@]12C [Ginsenoside Re] (10 µM) | 0 | 0 | 0 | 0 | 0 | 0 | 0 | 0 | 0 | 0
c1cc2c(cc1O[C@H]1OC[C@H]3[C@@H]1CO[C@@H]3c1ccc3c(c1)OCO3)OCO2 [Sesamolin] (10 µM) | 0 | 0 | 0 | 0 | 0 | 0 | 0 | 0 | 0 | 0
Cn1nccc1Nc1nccc(-c2cc3c(s2)C(C)(C)N(CCN2CCOCC2)C3=O)n1 (10 µM) | 0 | 0 | 0 | 0 | 0 | 0 | 0 | 0 | 0 | 0
COc1cc(N2CCC(N3CCN(C)CC3)CC2)ccc1Nc1ncc(Cl)c(Nc2ccccc2P(C)(C)=O)n1 [Brigatinib] (2 µM) | 0 | 0 | 0 | 0 | 0 | 0 | 0 | 0 | 0 | 0
Cn1cc(Nc2nccc(N3C[C@H]4CC[C@@H](C3)N4C(=O)[C@@H]3CC3(F)F)n2)cn1 (10 µM) | 0 | 0 | 0 | 0 | 0 | 0 | 0 | 0 | 0 | 0
Cc1ccc(NC(=S)NNc2c([N+](=O)[O-])cc(C(F)(F)F)cc2[N+](=O)[O-])cc1Cl (10 µM) | 0 | 0 | 0 | 0 | 0 | 0 | 0 | 0 | 0 | 0
COc1ccc(Cl)cc1NC(=O)Nc1cc(C)nc2ccccc12 (2.5 µM) | 0 | 0 | 0 | 0 | 0 | 0 | 0 | 0 | 0 | 0
COc1ccc(C(=C2C(=O)Nc3ccccc32)c2ccc(OC)cc2)cc1 (10 µM) | 0 | 0 | 0 | 0 | 0 | 0 | 0 | 0 | 0 | 0
O=C(O)CCc1ccc(O)c(O)c1 [Dihydrocaffeic acid] (10 µM) | 0 | 0 | 0 | 0 | 0 | 0 | 0 | 0 | 0 | 0
Cc1cc(O)c(C(C)C)cc1N=O [Poloxime] (10 µM) | 0 | 0 | 0 | 0 | 0 | 0 | 0 | 0 | 0 | 0
O=c1cc(O)cc(/C=C/c2ccc(O)c(O)c2)o1 [Hispidin] (10 µM) | 0 | 0 | 0 | 0 | 0 | 0 | 0 | 0 | 0 | 0
CNC(=O)Nc1ccc(-c2cc(-c3ccnc(Nc4ccc(C)c(S(=O)(=O)N(C)C)c4)n3)ccn2)cc1 [hSMG-1 inhibitor 11e] (2.5 µM) | 0 | 0 | 0 | 0 | 0 | 0 | 0 | 2 | 3 | 1
O=C(Nc1ccc2[nH]nc(-c3ccncc3)c2c1)[C@@H]1CCN(CC(=O)N2CCN(c3ccc(-c4ncccn4)cc3)CC2)C1 (2.5 µM) | 0 | 0 | 0 | 0 | 0 | 0 | 0 | 0 | 0 | 0

2 of these compounds, reformatted.
SMILES	number of time points (ROR2)	number of time points (RPS6KA1)	number of time points (SPHK1)	number of time points (SRC)	number of time points (STK24)	number of time points (STK38)	number of time points (SYK)	number of time points (TEC)	number of time points (TYK2)	number of time points (ULK3)
CC(C)NC(=O)N1CC[C@H](NC2=Nc3cc(F)ccc3N(CC(F)F)c3ccc(Cl)cc32)C1 (10 µM)	0	0	0	0	0	0	0	0	0	0
CC(C)(C)NC(=O)c1cncn1C1CCN(c2ccc(-c3nnc(C(F)(F)F)o3)cn2)CC1 (10 µM)	0	0	0	0	0	0	0	0	0	0
